The supplement of paper PMC12823440, “Inhibitors supercharge kinase turnover through native proteolytic circuits” (Nature, 2025)
Where a name gives a salt, the structure may show the parent alone. The list shows a part of the results. Hit calls seldom repeat between salt and free forms of one compound.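 Kinases, fused to nanoluciferase, were expressed in K562 cells; luminescence was measured every 4 h from 2 to 18 h as percent of control (DMSO = 100%, positive control = 0%). A time point is decreased if signal falls significantly (2 sigma). Hits were called by the authors by a rule that is not shown; the count of time points alone does not decide it.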

Amino acid sequences for entries named in this document (tags omitted).
UniProt P29317, whole entry: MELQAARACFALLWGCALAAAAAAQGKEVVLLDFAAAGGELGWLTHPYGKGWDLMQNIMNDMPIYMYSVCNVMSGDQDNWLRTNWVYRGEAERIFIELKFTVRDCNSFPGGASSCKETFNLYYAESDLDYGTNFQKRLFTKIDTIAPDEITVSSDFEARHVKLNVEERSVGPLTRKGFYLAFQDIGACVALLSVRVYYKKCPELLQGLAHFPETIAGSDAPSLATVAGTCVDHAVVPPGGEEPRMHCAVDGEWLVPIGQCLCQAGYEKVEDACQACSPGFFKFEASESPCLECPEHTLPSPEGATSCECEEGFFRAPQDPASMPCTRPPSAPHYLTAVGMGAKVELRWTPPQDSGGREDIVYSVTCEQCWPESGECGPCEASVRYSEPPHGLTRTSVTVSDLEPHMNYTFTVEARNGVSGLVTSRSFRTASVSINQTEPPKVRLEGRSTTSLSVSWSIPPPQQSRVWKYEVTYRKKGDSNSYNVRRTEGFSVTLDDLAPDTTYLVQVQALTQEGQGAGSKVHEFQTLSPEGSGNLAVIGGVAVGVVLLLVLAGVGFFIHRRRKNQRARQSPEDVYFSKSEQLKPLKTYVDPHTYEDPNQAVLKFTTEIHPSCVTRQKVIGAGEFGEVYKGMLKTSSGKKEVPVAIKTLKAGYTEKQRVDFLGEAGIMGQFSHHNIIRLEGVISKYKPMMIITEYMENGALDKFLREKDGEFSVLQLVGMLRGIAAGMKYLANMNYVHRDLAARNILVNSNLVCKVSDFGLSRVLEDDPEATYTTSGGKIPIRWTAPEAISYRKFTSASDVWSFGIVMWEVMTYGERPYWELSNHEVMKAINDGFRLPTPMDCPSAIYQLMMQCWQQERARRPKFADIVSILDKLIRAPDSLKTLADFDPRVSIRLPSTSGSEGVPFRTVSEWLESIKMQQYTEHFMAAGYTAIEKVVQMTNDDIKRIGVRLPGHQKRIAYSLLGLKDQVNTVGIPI

biological target: EGFR_T790M (UniProt P00533); assay: kinase-Nluc reporter destabilization hit call (1 = scored as downregulated) (binary); higher = compound decreases kinase abundance; settings: K562; 2-18 h

kinase-Nluc reporter destabilization hit call, inactive:
CC(C)c1ccc2oc3nc(N)c(C(=O)O)cc3c(=O)c2c1 [Amlexanox] (10 µM) 0
NS(=O)(=O)c1ccc(Nc2nc(OCC3CCCCC3)c3[nH]cnc3n2)cc1 (10 µM) 0
Cn1nc(C(C)(C)C)cc1NC(=O)Nc1ccc(Oc2ccncc2)cc1 (10 µM) 0
COc1ccc(F)c(F)c1C(=O)c1cnc(NC2CCN(S(C)(=O)=O)CC2)nc1N (2.5 µM) 0
COc1cc(C(=O)NC2CCN(C)CC2)ccc1Nc1ncc2c(n1)N(C1CCCC1)CC(F)(F)C(=O)N2C (10 µM) 0
CCN1C(=O)N(c2c(F)c(OC)cc(OC)c2F)Cc2cnc3[nH]c(CN4CCOCC4)cc3c21 [Pemigatinib] (10 µM) 0
COc1cc(Oc2ccnc3cc(OC)c(OC)cc23)ccc1NC(=O)NC(C)c1nccs1 (centres undefined) (2.5 µM) 0
C=CC(=O)N1C[C@H](Nc2ncnc3[nH]ccc23)CC[C@@H]1C [Ritlecitinib] (10 µM) 0
CC(C)(C)S(=O)(=O)c1cc2c(Nc3ccc4scnc4c3)ncnc2cc1OCCO (2.5 µM) 0
O=C(NOC[C@H](O)CO)c1ccc(F)c(F)c1Nc1ccc(I)cc1F (2.5 µM) 0
Cc1cccc([C@@H](CO)NC(=O)[C@@H](C)N2Cc3ccc(-c4nc(NC5CCOCC5)ncc4Cl)cc3C2=O)c1 [ERK1/2 inhibitor 1] (10 µM) 0
CNC(=O)c1cc(Oc2ccc(NC(=O)Nc3cc(C(C)(C)C)nn3-c3ccc4ncccc4c3)c(F)c2)ccn1 [Rebastinib] (2.5 µM) 0
CCCn1cnc2c(NCc3ccccc3)nc(NC(CC)CO)nc21 (centres undefined) [Ca2+ channel agonist 1] (2.5 µM) 0
Brc1c(Br)c(Br)c2n[nH]nc2c1Br (10 µM) 0
C=CC(=O)Nc1cccc(Nc2nc(Nc3ccc(OCCOC)cc3)ncc2F)c1 [Spebrutinib] (10 µM) 0
CC(C)=CC/C=C(\C)[C@H]1CC[C@]2(C)[C@@H]1[C@H](O)C[C@@H]1[C@@]3(C)CC[C@H](O[C@@H]4O[C@H](CO)[C@@H](O)[C@H](O)[C@H]4O[C@@H]4O[C@H](CO)[C@@H](O)[C@H](O)[C@H]4O)C(C)(C)[C@@H]3CC[C@]12C [Ginsenoside Rg5] (10 µM) 0
Cc1ncc(-c2ccnc(Nc3ccc(S(C)(=O)=O)cc3)n2)n1C(C)C (2.5 µM) 0
CN(C)CCOc1ccc(-c2nc(-c3ccncc3)c(-c3ccc4c(c3)CC/C4=N\O)[nH]2)cc1 (10 µM) 0
CCN(CCCOc1ccc2c(Nc3cc(CC(=O)Nc4cccc(F)c4)[nH]n3)ncnc2c1)CCOP(=O)(O)O [Barasertib] (10 µM) 0
C=CC(=O)N[C@H]1COC[C@H]1Nc1ncc2cc(-c3c(Cl)c(OC)cc(OC)c3Cl)c(=O)n(C)c2n1 (10 µM) 0

biological target: EPHA2 (UniProt P29317); assay: as above; settings: K562; 2-18 h

kinase-Nluc reporter destabilization hit call, inactive:
CC#CC(=O)N[C@H]1CCCN(c2c(F)cc(C(N)=O)c3[nH]c(C)c(C)c23)C1 [Branebrutinib] (10 µM) 0
O=C1NC(=NCc2cccs2)S/C1=C\c1ccc2ncccc2c1 (10 µM) 0
Cn1c(=O)n(-c2ccc(C(C)(C)C#N)cc2)c2c3cc(-c4cnc5ccccc5c4)ccc3ncc21 [Dactolisib (Tosylate)] (10 µM) 0
COC(=O)c1ccc2c(C(=Nc3ccc(N(C)C(=O)CN4CCN(C)CC4)cc3)c3ccccc3)c(O)[nH]c2c1 [Nintedanib] (2.5 µM) 0
COc1cc2ncnc(Nc3ccc(O)cc3)c2cc1OC (10 µM) 0
O=C(c1ccc(-c2ccc(Cl)cc2)o1)N(Cc1ccccn1)c1ccc(N2CCNCC2)cc1 [MK2-IN-1 (hydrochloride)] (10 µM) 0
CN1CCN(S(=O)(=O)c2ccc(-c3cnc(N)c(C(=O)Nc4cccnc4)n3)cc2)CC1 (10 µM) 0
CN(C)C[C@@H]1CCn2cc(c3ccccc32)C2=C(C(=O)NC2=O)c2cn(c3ccccc23)CCO1 [Ruboxistaurin (hydrochloride)] (10 µM) 0
COc1ccc(Oc2cc(NCCC(F)(F)F)c3ncc(-c4ccc(C(=O)NC5CC5)c(C)c4)n3n2)c(F)c1F (2.5 µM) 0
CCCCNc1ncc(-c2ccc(CN3CCOCC3)cn2)c(NC2CCC(O)CC2)n1 (centres undefined) (10 µM) 0
O=C(Nc1cc(C(F)(F)F)ccc1N1CCN(Cc2ccccn2)CC1)c1ccc(-c2ccncc2)o1 (10 µM) 0
CC(C)(/C=C(\C#N)C(=O)N1CCC[C@@H](n2nc(-c3ccc(Oc4ccccc4)cc3F)c3c(N)ncnc32)C1)N1CCN(C2COC2)CC1 (2.5 µM) 0
CNC(=O)c1cccc2cc(Oc3ccnc4cc(OCC5(N)CC5)c(OC)cc34)ccc12 [Lucitanib] (10 µM) 0
COc1cc(F)cc([C@@H](CO)NC(=O)[C@@H](C)N2Cc3ccc(-c4nc(NC5CCOCC5)ncc4Cl)cc3C2=O)c1 [ERK1/2 inhibitor 2] (10 µM) 0
O=c1cc(-c2ccccc2)oc2c(O)c(O)ccc12 [7,8-Dihydroxyflavone] (10 µM) 0
C=CC(=O)N1CC[C@H](n2nc(C#Cc3cc(OC)cc(OC)c3)c3c(N)ncnc32)C1 [Futibatinib] (10 µM) 0
O=C1Nc2ccccc2/C1=C/c1ccc(F)cc1 (10 µM) 0
CN(C)Cc1ccc(-c2cnn3c(-c4cccc(NC(=O)c5cccc(C(F)(F)F)c5)c4)ccnc23)cc1 (2.5 µM) 0
Cc1c[nH]c(/C=C2\C(=O)Nc3ccccc32)c1CCC(=O)O (10 µM) 0
CC(C)c1ccc2oc3nc(N)c(C(=O)O)cc3c(=O)c2c1 [Amlexanox] (10 µM) 0
NS(=O)(=O)c1ccc(Nc2nc(OCC3CCCCC3)c3[nH]cnc3n2)cc1 (10 µM) 0
Cn1nc(C(C)(C)C)cc1NC(=O)Nc1ccc(Oc2ccncc2)cc1 (10 µM) 0
COc1ccc(F)c(F)c1C(=O)c1cnc(NC2CCN(S(C)(=O)=O)CC2)nc1N (2.5 µM) 0
COc1cc(C(=O)NC2CCN(C)CC2)ccc1Nc1ncc2c(n1)N(C1CCCC1)CC(F)(F)C(=O)N2C (10 µM) 0
CCN1C(=O)N(c2c(F)c(OC)cc(OC)c2F)Cc2cnc3[nH]c(CN4CCOCC4)cc3c21 [Pemigatinib] (10 µM) 0
COc1cc(Oc2ccnc3cc(OC)c(OC)cc23)ccc1NC(=O)NC(C)c1nccs1 (centres undefined) (2.5 µM) 0
C=CC(=O)N1C[C@H](Nc2ncnc3[nH]ccc23)CC[C@@H]1C [Ritlecitinib] (10 µM) 0
CC(C)(C)S(=O)(=O)c1cc2c(Nc3ccc4scnc4c3)ncnc2cc1OCCO (2.5 µM) 0
O=C(NOC[C@H](O)CO)c1ccc(F)c(F)c1Nc1ccc(I)cc1F (2.5 µM) 0
Cc1cccc([C@@H](CO)NC(=O)[C@@H](C)N2Cc3ccc(-c4nc(NC5CCOCC5)ncc4Cl)cc3C2=O)c1 [ERK1/2 inhibitor 1] (10 µM) 0
CNC(=O)c1cc(Oc2ccc(NC(=O)Nc3cc(C(C)(C)C)nn3-c3ccc4ncccc4c3)c(F)c2)ccn1 [Rebastinib] (2.5 µM) 0
CCCn1cnc2c(NCc3ccccc3)nc(NC(CC)CO)nc21 (centres undefined) [Ca2+ channel agonist 1] (2.5 µM) 0
Brc1c(Br)c(Br)c2n[nH]nc2c1Br (10 µM) 0
C=CC(=O)Nc1cccc(Nc2nc(Nc3ccc(OCCOC)cc3)ncc2F)c1 [Spebrutinib] (10 µM) 0
CC(C)=CC/C=C(\C)[C@H]1CC[C@]2(C)[C@@H]1[C@H](O)C[C@@H]1[C@@]3(C)CC[C@H](O[C@@H]4O[C@H](CO)[C@@H](O)[C@H](O)[C@H]4O[C@@H]4O[C@H](CO)[C@@H](O)[C@H](O)[C@H]4O)C(C)(C)[C@@H]3CC[C@]12C [Ginsenoside Rg5] (10 µM) 0
Cc1ncc(-c2ccnc(Nc3ccc(S(C)(=O)=O)cc3)n2)n1C(C)C (2.5 µM) 0
CN(C)CCOc1ccc(-c2nc(-c3ccncc3)c(-c3ccc4c(c3)CC/C4=N\O)[nH]2)cc1 (10 µM) 0
CCN(CCCOc1ccc2c(Nc3cc(CC(=O)Nc4cccc(F)c4)[nH]n3)ncnc2c1)CCOP(=O)(O)O [Barasertib] (10 µM) 0
C=CC(=O)N[C@H]1COC[C@H]1Nc1ncc2cc(-c3c(Cl)c(OC)cc(OC)c3Cl)c(=O)n(C)c2n1 (10 µM) 0
